{"sequences": {"note": "Sequences of proteins named here, by UniProt entry; tags and fusion partners are left off. A change or cut given only in a name is not applied to a line headed by its entry.", "UniProt P46063": "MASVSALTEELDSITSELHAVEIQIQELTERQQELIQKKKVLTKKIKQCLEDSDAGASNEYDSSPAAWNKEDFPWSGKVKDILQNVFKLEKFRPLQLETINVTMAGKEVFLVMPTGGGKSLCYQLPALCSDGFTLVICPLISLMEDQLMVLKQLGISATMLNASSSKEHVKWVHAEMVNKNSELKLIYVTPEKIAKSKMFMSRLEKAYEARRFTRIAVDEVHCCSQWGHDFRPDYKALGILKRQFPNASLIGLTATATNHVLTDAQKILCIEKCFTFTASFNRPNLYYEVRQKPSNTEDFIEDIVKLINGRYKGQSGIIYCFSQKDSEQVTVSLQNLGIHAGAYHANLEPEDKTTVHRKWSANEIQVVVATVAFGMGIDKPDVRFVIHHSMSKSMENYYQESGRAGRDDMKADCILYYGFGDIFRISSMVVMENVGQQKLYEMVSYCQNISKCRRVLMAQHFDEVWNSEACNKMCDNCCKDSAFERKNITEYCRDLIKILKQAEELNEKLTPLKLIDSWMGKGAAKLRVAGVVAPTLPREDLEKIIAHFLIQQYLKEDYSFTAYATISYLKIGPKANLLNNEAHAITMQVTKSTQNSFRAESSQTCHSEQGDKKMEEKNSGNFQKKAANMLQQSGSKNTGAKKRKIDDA"}, "source": "PubChem BioAssay AID2549", "about": "(National Center for Advancing Translational Sciences (NCATS), 2010)", "note": "Several values for one entry are separate records, joined by “and”; a condition that tells them apart may be missing. Equal entries are not always repeated. About 1,300 (0.54%) of roughly 240,000 compounds were called active. The shares of active, inactive and inconclusive entries below differ from those in the screen. The call rests on the fitted dose curve; in most records, active means well fitted inhibition curve with a large enough effect; inconclusive means small, poorly fitted or top-dose-only effect; inactive means flat fitted curve, though single readings scatter. Potencies of inconclusive entries are doubtful fits and often do not repeat. The source holds several records for some structures; these can differ, active in one and inactive in another."}
{"biological_target": "ATP-dependent DNA helicase Q1 (Homo sapiens) (UniProt P46063)", "assay": "qHTS Assay for Inhibitors of RecQ-Like Dna Helicase 1 (RECQ1); further: nearly all actives have a fitted effect of over 30% in size; further: potency means the concentration at half of the fitted maximal effect", "details": "RECQ1 DNA unwinding, red fluorescence kinetic read; series mostly up to 57.3 µM", "procedure,_shortened": "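RECQ1T1 50 nM; forked duplex (20 bp + 30-nt ss tails) 200 nM, ATP 2 mM final; pH 8.0, 2 mM MgCl2, 2.5 ug/ml poly(dI-dC); 15 min compound preincubation; discontinuous kinetic read over 2 h at RT.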"}
{"compound": "c1ccc(N2CC3CCc4ccccc4C3=N2)cc1", "note": "(centres undefined)", "Potency": "inconclusive: 39.8 µM [inhibitor, single point]"}
{"compound": "c1ccc(CCc2nn3c(Cn4nnc5ccccc54)nnc3s2)cc1", "Potency": "inconclusive: 39.8 µM [inhibitor, partial curve]"}
{"compound": "Cn1c(=O)n(Cc2ccccc2)c(=O)c2c1nc1n2CCS1", "Potency": "inactive"}
{"compound": "CCOc1ccc2[nH]c(=O)c(CN(Cc3cccs3)Cc3nnnn3C(C)(C)CC)cc2c1", "Potency": "inconclusive: 39.8 µM [inhibitor, single point]"}
{"compound": "Cc1ccc(/C=c2\\s/c(=C(/C#N)C(=O)N3CCCC3)n(Cc3ccco3)c2=O)s1", "Potency": "inconclusive: 25.1 µM [inhibitor, single point]"}
{"compound": "COc1ccc(C(CC(=O)N2CCCCC2)c2c(OC)cc(OC)c3c(-c4ccccc4)cc(=O)oc23)cc1", "note": "(centres undefined)", "Potency": "inconclusive: 35.5 µM [inhibitor, single point]"}
{"compound": "O=C(Nc1cccc(-c2nc3ccccc3[nH]2)c1)c1cccc(NC(=O)c2ccco2)c1", "Potency": "inconclusive: 35.5 µM [inhibitor, single point]"}
{"compound": "CCOc1ccc(C(=O)Nc2cc(-c3nc4ccccc4[nH]3)ccc2Cl)cc1[N+](=O)[O-]", "Potency": "inconclusive: 31.6 µM [inhibitor, single point]"}
{"compound": "Oc1c(C(Nc2ccccn2)c2ccccn2)ccc2cccnc12", "note": "(centres undefined)", "Potency": "inactive"}
{"compound": "C=CCn1c(SCC(=O)N2c3ccccc3Sc3ccccc32)nnc1-c1ccco1", "Potency": "inactive"}
{"compound": "CCCCCCCCCCCCOS(=O)(=O)O", "Potency": "inconclusive: 39.8 µM [inhibitor, single point]"}
{"compound": "CCCCCCCCCCCCCCCC[n+]1ccc(/C=N/O)cc1", "Potency": "inactive"}
{"compound": "CCN1CCc2nc(N)sc2C1", "Potency": "inconclusive: 31.6 µM [inhibitor, single point]"}
{"compound": "COC(=O)/C(C#N)=C/c1ccc(-c2ccc(S(N)(=O)=O)cc2)o1", "Potency": "active: 3.16 µM"}
{"compound": "Cc1cccc2nc(-c3cccc(NC(=O)c4ccc(Cl)cc4)c3)cn12", "Potency": "inconclusive: 39.8 µM [inhibitor, single point]"}
{"compound": "CCCN1C(=O)/C(=C/c2ccco2)SC1=Nc1ccc(OC)cc1", "Potency": "active: 25.1 µM"}
{"compound": "O=C1OC(OC2CCCCC2)(c2ccccc2)c2ccccc21", "note": "(centres undefined)", "Potency": "inconclusive: 20 µM [inhibitor, partial curve]"}
{"compound": "CCc1nnc(NS(=O)(=O)c2ccc(NC(=S)NC(=O)/C=C/c3ccccc3)cc2)s1", "Potency": "inconclusive: 35.5 µM [inhibitor, single point]"}
{"compound": "Cc1oc(/C=N/NC(=O)CC2(C)OCCO2)cc1Br", "Potency": "inactive"}
{"compound": "Cc1cc(=O)[nH]c(S)c1C#N", "Potency": "active: 22.4 µM"}
{"compound": "COC(=O)CCCC1=CC2=CC(=O)C(C)(OC(=O)c3cccs3)C(=O)C2=CO1", "note": "(centres undefined)", "Potency": "inconclusive: 31.6 µM [inhibitor, single point]"}
{"compound": "O=[N+]([O-])c1cccc(Nc2c3ccccc3nc3ccccc23)c1", "Potency": "inactive"}
{"compound": "CCOc1ccccc1NC(=O)CN(c1ccc(OC)cc1)S(=O)(=O)c1c(C)noc1C", "Potency": "inconclusive: 22.4 µM [inhibitor, partial curve]"}
{"compound": "CC(C)NC(=O)NC(=O)CSc1nnc(COc2ccccc2Cl)o1", "Potency": "inconclusive: 25.1 µM [inhibitor, partial curve]"}
{"compound": "Nc1ccc(-c2nc3ccc(-c4nc5ccc(N)cc5[nH]4)cc3[nH]2)cc1", "Potency": "active: 14.1 µM and active: 25.1 µM"}
{"compound": "COc1cccc(C(C(=O)NCc2ccco2)N(C(=O)Cn2nnc3ccccc32)C2CC2)c1OC", "note": "(centres undefined)", "Potency": "inconclusive: 35.5 µM [inhibitor, single point]"}
{"compound": "CC(C)N1CCN(Cc2ccc3nsnc3c2)CC1CCO", "note": "(centres undefined)", "Potency": "inconclusive: 0.0891 µM [inhibitor, full curve, poor fit]"}
{"compound": "Clc1ncc(CN2CCN(c3ccccc3)CC2)s1", "Potency": "inconclusive: 7.08 µM [inhibitor, single point]"}
{"compound": "Cc1cc2cc(C)c(NCCNC(=O)c3cccc(F)c3)nc2cc1C", "Potency": "inconclusive: 39.8 µM [inhibitor, single point]"}
{"compound": "CCOc1cc(S(=O)(=O)Nc2cc(C)cc(C)c2)ccc1Cl", "Potency": "inactive"}
{"compound": "COc1ccc(C(=O)Nc2sc3c(c2C(N)=O)CCCC3)cc1OC", "Potency": "inconclusive: 12.6 µM [inhibitor, partial curve]"}
{"compound": "COc1ccc(N2CSC3=C(C#N)C(c4cc(OC)ccc4OC)CC(=O)N3C2)c(OC)c1", "note": "(centres undefined)", "Potency": "inconclusive: 39.8 µM [inhibitor, single point]"}
{"compound": "CCCCNc1nc(C)nc2c1nc(-c1ccccc1)n2CC1CCCN1CC", "note": "(centres undefined)", "Potency": "inactive"}
{"compound": "CC(N)(Cc1ccc(O)c(O)c1)C(=O)O", "note": "(centres undefined)", "Potency": "active: 3.16 µM"}
{"compound": "Cc1ccc(S(=O)(=O)N(C(=O)c2ccncc2)c2ccc(OC(=O)c3ccncc3)c3ccccc23)c(C)c1", "Potency": "inactive"}
{"compound": "C#CCOCCOCCOCCNc1nc(N2CCN(C(=O)[C@H](Cc3cc4ccccc4[nH]3)n3cc([C@@H](N)CC(C)C)nn3)CC2)nc(N2CCN(C(=O)[C@H](Cc3cc4ccccc4[nH]3)n3cc([C@@H](N)CC(C)C)nn3)CC2)n1", "Potency": "inconclusive: 39.8 µM [inhibitor, single point]"}
{"compound": "COc1cc(O)c2c(=O)c(O)c(-c3ccc(O)c(O)c3)oc2c1", "Potency": "inconclusive: 2 µM [inhibitor, full curve, poor fit]"}
{"compound": "O=C(O)c1cc(-c2ccc(/C=C3\\NC(=O)N(c4ccc(Cl)cc4)C3=O)o2)ccc1Cl", "Potency": "inconclusive: 39.8 µM [inhibitor, single point]"}
{"compound": "O=C(O)c1cccc(N2CCCC2)c1", "Potency": "inactive"}
{"compound": "O=C(O)c1ccccc1-c1c2cc(Br)c(=O)c(Br)c-2oc2c(Br)c(O)c(Br)cc12", "Potency": "active: 31.6 µM"}
{"compound": "COc1ccccc1/C=C/C(=O)c1ccc(Cl)cc1", "Potency": "inconclusive: 17.8 µM [inhibitor, partial curve, poor fit]"}
{"compound": "CCCCn1c(NC(=S)Nc2ccccc2)nc2ccccc21", "Potency": "inactive"}
{"compound": "Nc1c2c(nc3sc4c(c13)CCCC4)-c1ccccc1CC2", "Potency": "inconclusive: 1.12 µM [inhibitor, full curve]"}
{"compound": "CC(=O)NC1C(OC2OC(CC(O)C3OC([N+]4=CCC(=O)NC4=O)C(O)C3O)C(O)C(O)C2NC(=O)/C=C/CCCCCCCCC(C)C)OC(CO)C(O)C1O", "note": "(centres undefined)", "Potency": "inactive"}
{"compound": "Cc1ccc(S(=O)(=O)N2CCOCC2)cc1NC(=O)CN1CCN(c2ccc(O)cc2)CC1", "Potency": "inconclusive: 25.1 µM [inhibitor, single point]"}
{"compound": "N#Cc1ccccc1CN1C(=O)S/C(=C/c2cccn2-c2cccc(C(=O)O)c2)C1=O", "Potency": "active: 28.2 µM"}
{"compound": "C/C(N)=C(/C#N)C(=O)CSc1nnnn1-c1ccc(C)cc1", "Potency": "active: 20 µM"}
{"compound": "O=C(CSc1n[nH]c(=O)[nH]c1=O)NC1CC1", "Potency": "inconclusive: 39.8 µM [inhibitor, single point]"}
{"compound": "Cc1cccn2c(=O)c(C=O)c(Cl)nc12", "Potency": "inconclusive: 39.8 µM [inhibitor, single point]"}
{"compound": "O=C1ON=C(c2ccccc2)/C1=C/c1ccco1", "Potency": "inconclusive: 35.5 µM [inhibitor, single point]"}
{"compound": "CCOc1ccc(Nc2nc(NCC3CCCO3)c3ccccc3n2)cc1", "note": "(centres undefined)", "Potency": "inconclusive: 31.6 µM [inhibitor, partial curve, poor fit]"}
{"compound": "Cc1cccc([C@@H]2CN(C)CCc3c2cc(O)c(O)c3Cl)c1", "Potency": "inactive"}
{"compound": "CCn1ncc2c(OCc3ccc(C#N)cc3)cc(C)nc21", "Potency": "inconclusive: 39.8 µM [inhibitor, single point]"}
{"compound": "CCOC(=O)C1CCN(c2nc(N)c3c(N)nc(SCC(=O)O)cc3c2C#N)CC1", "Potency": "inconclusive: 39.8 µM [inhibitor, single point]"}
{"compound": "Cc1c(N=Nc2c(-c3ccc([N+](=O)[O-])cc3)[nH]n(C(N)=S)c2=O)cccc1[N+](=O)[O-]", "Potency": "inactive"}
{"compound": "Cc1ccc(/C=C/C(=O)c2nc3ccccc3[nH]2)cc1", "Potency": "active: 10 µM"}
{"compound": "Cc1ccc2cc(/C=C3\\N=C(c4ccccc4)OC3=O)c(N3CCOCC3)nc2c1", "Potency": "inconclusive: 35.5 µM [inhibitor, single point]"}
{"compound": "CC(=O)Cn1c2ccccc2n2nc(CCC(=O)O)c(=O)nc12", "Potency": "inactive"}
{"compound": "CCCCCCCC1=Cc2ccc(F)cc2C(C(C(=O)OC)C(=O)OC)N1C(=O)OC", "note": "(centres undefined)", "Potency": "inconclusive: 1.12 µM [inhibitor, single point]"}
{"compound": "CC(C)=C1C(=O)NN(c2ccc(C)c(Cl)c2)C1=O", "Potency": "inconclusive: 35.5 µM [inhibitor, single point]"}
{"compound": "CNC(=S)N/N=C/c1cn(Cc2c(F)cccc2Cl)c2ccccc12", "Potency": "inconclusive: 35.5 µM [inhibitor, single point]"}
{"compound": "CCCCNC(=O)c1cc2c(=O)n3cccc(C)c3nc2n(CCN2CCOCC2)c1=N", "Potency": "inconclusive: 1.41 µM [inhibitor, full curve]"}
{"compound": "CCC(=O)OCCNc1cc(SCCC(=O)OC)c2nonc2c1[N+](=O)[O-]", "Potency": "inactive"}
{"compound": "NC(=O)c1c(NC(=O)C2c3ccccc3Oc3ccccc32)sc2c1CCCCC2", "Potency": "inconclusive: 22.4 µM [inhibitor, partial curve, poor fit]"}
{"compound": "CCN1CCN(Cc2ccc(NC(=O)c3ccc(C)c(NC(=O)c4ccno4)c3)cc2C(F)(F)F)CC1", "Potency": "inactive"}
{"compound": "C[n+]1cccc2cccc([O-])c21", "Potency": "inconclusive: 39.8 µM [inhibitor, single point]"}
{"compound": "Oc1ccccc1/C=N/Nc1nc2ccccc2o1", "Potency": "inconclusive: 5.62 µM [inhibitor, partial curve, poor fit]"}
{"compound": "O=C(O)COc1ccccc1/C=N/NC(=O)c1cc2ccccc2cc1O", "Potency": "inconclusive: 35.5 µM [inhibitor, single point]"}
